Measured values reported in article PMC11414389.
These are yes or no findings as the source states them, for the method shown. In cells and extracts the contact can be indirect. Some results given as binding are weak or reduced against the parent protein; the word gives no strength.

Sequences of proteins named here, by UniProt entry; tags and fusion partners are left off. A change or cut given only in a name is not applied to a line headed by its entry.
UniProt Q16254: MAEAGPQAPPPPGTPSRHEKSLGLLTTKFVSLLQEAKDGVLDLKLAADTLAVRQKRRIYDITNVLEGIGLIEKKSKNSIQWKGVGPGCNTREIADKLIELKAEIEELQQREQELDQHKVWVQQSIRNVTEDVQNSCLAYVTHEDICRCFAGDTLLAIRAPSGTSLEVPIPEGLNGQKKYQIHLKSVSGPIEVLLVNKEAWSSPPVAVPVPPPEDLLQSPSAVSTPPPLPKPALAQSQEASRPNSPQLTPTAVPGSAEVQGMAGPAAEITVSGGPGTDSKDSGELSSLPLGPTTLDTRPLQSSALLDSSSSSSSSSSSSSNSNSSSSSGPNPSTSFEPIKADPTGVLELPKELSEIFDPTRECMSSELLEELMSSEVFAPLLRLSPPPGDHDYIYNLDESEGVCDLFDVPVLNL

Molecular target: T1, nucleobindin 2 (NUCB2) (human (endogenous in SNU449 and Huh-7)) (UniProt P80303)
T1 sequence: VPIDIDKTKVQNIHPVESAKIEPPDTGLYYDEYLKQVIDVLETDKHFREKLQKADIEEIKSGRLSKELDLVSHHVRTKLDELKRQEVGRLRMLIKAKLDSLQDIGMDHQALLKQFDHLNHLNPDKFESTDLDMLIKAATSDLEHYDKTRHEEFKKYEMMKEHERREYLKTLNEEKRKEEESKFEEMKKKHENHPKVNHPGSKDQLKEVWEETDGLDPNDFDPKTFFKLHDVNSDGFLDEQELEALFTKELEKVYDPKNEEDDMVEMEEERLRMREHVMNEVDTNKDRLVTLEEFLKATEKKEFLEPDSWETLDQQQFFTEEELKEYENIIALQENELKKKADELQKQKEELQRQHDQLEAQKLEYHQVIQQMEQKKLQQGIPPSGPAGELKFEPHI
Experiment: co-IP; SNU449 and Huh-7 cell lysates immunoprecipitated with control IgG or anti-E2F4 or NUCB2 antibodies; immunoprecipitates detected by blotting with the indicated antibodies; endogenous proteins

- binding: binds
Substance: E2F transcription factor 4 (E2F4) (from UniProt Q16254 1-413)
